Laboratory results reported in publication PMC5886296.
Where a chain is given by its changes, count along the chain named. Like-named read-outs stand apart in the source and are kept apart here. Results are given in words; binding and its absence hold for the method and conditions named. In cells and extracts the contact can be indirect. Here binding means that the protein was enriched with, or labelled near, the bait; the list need not be complete. For some assays here: A no says only that the protein was not detected with the bait. Blank lines part the entries; values can stand above or below the molecule they belong to.

Protein sequences, listed by entry. Tags and fused reporters are not part of them. Residues count along the entry.
UniProt P68371: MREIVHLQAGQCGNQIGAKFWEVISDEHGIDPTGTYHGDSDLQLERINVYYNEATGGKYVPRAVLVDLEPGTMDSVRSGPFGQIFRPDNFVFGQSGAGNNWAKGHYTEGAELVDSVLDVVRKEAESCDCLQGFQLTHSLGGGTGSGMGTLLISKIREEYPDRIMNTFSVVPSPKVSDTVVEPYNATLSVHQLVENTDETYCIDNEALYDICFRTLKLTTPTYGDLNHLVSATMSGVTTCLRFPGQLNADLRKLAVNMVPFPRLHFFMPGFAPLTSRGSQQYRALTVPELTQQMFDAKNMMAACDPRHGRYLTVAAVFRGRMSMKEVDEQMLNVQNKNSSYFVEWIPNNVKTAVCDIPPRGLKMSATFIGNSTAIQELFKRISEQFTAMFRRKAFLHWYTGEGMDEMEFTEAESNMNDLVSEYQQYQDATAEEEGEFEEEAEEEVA
UniProt P17066: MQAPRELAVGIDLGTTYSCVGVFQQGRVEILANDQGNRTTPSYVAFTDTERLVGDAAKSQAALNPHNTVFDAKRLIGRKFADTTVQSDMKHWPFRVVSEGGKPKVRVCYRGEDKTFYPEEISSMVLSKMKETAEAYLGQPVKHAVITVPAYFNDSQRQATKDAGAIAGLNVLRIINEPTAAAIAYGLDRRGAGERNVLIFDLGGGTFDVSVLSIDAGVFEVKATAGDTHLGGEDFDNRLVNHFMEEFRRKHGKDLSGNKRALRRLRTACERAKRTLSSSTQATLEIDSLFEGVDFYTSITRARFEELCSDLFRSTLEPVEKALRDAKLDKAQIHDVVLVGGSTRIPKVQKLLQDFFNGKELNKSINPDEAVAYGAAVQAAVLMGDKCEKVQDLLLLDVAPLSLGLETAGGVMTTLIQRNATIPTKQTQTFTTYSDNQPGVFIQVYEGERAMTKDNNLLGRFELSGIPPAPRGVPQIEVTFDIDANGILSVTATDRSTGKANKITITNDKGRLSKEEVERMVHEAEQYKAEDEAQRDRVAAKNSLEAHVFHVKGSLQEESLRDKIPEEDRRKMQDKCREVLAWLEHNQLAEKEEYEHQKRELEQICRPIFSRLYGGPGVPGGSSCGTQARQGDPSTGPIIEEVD
UniProt P68363: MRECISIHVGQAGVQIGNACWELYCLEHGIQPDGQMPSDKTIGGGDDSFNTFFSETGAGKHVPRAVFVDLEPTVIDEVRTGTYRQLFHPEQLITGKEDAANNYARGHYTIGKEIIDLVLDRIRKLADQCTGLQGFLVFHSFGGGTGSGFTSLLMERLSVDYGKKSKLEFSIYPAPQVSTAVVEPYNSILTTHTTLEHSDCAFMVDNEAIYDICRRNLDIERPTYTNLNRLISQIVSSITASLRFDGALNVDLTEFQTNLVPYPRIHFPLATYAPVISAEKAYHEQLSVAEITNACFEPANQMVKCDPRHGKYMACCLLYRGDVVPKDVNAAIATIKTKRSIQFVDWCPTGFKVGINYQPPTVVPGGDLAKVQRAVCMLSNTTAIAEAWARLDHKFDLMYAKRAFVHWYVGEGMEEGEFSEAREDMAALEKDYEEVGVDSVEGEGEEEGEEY
UniProt P11021, residues 19-654: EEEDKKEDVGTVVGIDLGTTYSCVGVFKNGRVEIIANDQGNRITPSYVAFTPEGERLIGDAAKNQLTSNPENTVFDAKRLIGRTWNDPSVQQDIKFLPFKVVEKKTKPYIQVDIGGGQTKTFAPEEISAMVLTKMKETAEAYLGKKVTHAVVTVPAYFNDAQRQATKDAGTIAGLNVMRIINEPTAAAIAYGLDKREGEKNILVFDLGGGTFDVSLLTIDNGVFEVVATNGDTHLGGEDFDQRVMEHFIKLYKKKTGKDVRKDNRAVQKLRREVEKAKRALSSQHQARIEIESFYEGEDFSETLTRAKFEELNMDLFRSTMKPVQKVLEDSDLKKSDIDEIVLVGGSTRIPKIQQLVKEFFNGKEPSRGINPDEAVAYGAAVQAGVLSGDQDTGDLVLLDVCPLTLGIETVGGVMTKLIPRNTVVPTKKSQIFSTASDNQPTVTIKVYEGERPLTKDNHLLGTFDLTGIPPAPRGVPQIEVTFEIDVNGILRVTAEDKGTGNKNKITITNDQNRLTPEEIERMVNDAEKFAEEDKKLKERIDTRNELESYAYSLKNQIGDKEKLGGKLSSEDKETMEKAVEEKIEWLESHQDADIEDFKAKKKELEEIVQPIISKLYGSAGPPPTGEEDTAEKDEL
UniProt P68104: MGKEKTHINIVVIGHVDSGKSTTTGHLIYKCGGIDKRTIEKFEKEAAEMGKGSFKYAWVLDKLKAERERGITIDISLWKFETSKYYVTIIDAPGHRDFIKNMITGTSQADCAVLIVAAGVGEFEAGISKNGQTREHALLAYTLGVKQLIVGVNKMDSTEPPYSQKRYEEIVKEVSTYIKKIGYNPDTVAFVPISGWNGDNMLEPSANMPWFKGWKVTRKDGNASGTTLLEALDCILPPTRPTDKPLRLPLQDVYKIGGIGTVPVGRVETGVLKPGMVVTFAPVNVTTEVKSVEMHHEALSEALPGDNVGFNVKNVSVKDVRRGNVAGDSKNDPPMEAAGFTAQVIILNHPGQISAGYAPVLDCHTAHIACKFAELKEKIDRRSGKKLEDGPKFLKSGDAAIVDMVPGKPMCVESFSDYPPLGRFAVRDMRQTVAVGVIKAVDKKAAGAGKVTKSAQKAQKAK
UniProt P0DMV8: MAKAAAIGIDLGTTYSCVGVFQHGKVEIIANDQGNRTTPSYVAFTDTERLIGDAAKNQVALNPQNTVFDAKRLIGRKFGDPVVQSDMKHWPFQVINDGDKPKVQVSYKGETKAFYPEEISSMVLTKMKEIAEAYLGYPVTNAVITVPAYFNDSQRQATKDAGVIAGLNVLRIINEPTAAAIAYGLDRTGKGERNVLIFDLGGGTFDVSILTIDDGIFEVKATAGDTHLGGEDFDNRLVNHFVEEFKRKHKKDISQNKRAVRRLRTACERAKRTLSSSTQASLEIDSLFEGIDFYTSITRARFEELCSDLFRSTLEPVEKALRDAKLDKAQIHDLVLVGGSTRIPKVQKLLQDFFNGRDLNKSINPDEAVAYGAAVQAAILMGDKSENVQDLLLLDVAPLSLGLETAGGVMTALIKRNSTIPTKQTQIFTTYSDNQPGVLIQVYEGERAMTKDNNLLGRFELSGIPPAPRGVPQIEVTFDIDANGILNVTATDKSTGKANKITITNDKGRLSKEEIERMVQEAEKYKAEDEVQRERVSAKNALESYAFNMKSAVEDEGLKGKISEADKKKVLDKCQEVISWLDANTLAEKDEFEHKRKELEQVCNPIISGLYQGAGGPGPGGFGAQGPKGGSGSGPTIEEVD
UniProt P11142: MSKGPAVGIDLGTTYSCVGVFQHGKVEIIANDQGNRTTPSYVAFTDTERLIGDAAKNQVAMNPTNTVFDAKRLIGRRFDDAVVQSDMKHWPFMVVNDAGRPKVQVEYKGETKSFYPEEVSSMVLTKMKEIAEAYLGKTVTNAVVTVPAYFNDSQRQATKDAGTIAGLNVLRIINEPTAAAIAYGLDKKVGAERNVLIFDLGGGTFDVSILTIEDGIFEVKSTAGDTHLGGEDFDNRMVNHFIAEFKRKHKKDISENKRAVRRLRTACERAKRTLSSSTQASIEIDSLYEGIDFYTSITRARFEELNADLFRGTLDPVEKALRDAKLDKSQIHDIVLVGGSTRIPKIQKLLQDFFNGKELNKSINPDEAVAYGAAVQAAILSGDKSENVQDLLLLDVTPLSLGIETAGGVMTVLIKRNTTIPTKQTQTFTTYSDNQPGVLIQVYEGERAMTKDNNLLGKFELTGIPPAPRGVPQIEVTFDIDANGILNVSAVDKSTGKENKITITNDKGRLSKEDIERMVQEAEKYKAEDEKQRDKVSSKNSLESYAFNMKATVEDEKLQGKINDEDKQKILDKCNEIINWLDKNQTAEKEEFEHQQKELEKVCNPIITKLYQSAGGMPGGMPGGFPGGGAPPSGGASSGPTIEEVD
UniProt P07437: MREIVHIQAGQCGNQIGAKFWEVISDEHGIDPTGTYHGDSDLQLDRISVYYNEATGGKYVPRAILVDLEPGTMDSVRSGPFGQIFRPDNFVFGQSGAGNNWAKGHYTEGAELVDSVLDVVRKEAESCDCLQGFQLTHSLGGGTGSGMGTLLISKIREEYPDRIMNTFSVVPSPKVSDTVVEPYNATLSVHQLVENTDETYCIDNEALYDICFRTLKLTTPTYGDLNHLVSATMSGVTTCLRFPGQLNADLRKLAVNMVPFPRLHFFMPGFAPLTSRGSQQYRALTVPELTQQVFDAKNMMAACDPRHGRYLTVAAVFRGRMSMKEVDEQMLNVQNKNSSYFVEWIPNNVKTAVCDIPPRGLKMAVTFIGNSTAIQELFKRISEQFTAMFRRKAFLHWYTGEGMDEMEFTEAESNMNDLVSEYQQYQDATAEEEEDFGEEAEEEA
UniProt P25705, residues 44-553: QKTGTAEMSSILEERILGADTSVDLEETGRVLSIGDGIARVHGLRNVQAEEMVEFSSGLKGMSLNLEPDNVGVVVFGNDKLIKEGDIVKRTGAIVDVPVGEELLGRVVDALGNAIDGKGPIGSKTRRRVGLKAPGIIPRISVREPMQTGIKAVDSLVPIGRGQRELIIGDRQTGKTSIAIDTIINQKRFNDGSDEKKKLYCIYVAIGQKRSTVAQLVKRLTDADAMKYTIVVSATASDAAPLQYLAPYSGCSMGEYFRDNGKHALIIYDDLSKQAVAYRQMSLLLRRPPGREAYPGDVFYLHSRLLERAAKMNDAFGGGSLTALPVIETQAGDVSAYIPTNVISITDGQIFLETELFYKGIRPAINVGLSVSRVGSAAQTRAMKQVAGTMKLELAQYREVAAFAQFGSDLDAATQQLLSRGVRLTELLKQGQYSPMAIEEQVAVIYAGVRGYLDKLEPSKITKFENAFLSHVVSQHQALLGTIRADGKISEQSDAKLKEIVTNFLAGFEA
UniProt Q9Y265: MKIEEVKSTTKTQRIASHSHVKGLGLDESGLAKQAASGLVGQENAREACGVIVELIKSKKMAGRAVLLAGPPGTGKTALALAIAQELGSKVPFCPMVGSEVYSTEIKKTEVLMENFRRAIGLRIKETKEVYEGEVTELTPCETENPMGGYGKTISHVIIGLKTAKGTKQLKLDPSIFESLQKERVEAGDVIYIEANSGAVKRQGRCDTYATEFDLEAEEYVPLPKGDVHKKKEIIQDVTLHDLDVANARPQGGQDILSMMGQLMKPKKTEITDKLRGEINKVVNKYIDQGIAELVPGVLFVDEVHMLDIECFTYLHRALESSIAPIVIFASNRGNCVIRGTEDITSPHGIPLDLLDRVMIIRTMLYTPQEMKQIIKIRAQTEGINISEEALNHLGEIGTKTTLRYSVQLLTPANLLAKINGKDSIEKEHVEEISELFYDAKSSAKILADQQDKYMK
UniProt P38646, residues 47-679: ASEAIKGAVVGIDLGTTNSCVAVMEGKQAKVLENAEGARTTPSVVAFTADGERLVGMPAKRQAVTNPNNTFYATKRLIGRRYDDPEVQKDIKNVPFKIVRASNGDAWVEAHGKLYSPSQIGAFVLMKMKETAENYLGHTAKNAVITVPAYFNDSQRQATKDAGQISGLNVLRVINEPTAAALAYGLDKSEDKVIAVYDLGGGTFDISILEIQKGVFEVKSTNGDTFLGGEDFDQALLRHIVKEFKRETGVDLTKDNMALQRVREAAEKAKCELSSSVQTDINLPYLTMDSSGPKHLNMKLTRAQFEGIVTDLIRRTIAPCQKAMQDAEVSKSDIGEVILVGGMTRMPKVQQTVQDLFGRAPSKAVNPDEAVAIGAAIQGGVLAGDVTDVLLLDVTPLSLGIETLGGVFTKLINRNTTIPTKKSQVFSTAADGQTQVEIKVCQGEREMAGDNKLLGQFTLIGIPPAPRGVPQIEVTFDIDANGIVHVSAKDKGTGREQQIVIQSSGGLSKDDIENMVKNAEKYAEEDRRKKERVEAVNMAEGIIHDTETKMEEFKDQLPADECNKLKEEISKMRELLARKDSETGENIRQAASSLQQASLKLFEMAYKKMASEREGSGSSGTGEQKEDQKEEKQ

What was measured:
Assay in all cases: affinity purification with mass spectrometry; SF-TAP of N-terminally tagged DNAAF1 from transfected HEK293 lysate: Strep-Tactin beads, desthiobiotin elution, then anti-FLAG M2 beads, FLAG peptide elution; mass spectrometry; three biological replicates
[1] = biological target: T1, SF-TAP-DNAAF1 mutant (p.Phe191) (human) (UniProt Q8NEP3)
T1 sequence: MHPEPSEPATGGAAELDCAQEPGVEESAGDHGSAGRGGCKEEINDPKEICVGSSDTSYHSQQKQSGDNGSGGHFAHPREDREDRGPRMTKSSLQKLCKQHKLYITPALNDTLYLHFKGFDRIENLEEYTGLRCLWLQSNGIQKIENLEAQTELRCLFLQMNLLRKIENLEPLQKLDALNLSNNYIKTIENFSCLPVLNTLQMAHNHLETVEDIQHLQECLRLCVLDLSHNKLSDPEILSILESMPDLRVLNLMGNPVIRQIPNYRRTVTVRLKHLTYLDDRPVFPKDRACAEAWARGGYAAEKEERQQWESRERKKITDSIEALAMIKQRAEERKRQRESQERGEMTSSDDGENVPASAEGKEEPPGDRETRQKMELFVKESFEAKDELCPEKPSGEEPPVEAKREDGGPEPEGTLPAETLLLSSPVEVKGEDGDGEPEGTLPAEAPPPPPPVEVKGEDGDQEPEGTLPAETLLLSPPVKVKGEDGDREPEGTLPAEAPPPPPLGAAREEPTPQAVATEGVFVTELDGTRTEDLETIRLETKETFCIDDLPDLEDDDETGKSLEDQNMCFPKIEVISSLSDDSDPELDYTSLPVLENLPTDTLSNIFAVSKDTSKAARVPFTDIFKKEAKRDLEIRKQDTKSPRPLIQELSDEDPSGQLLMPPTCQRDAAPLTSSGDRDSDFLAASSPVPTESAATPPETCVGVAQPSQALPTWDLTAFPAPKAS

[2] = biological target: T2, SF-TAP-DNAAF1 wild-type (p.Leu191) (human) (UniProt Q8NEP3)
T2 sequence: T1 sequence with F191L

[3] = biological target: T1, SF-TAP-DNAAF1 mutant (p.Phe191) (human); remark: listed apart in the source
[4] = biological target: T2, SF-TAP-DNAAF1 wild-type (p.Leu191) (human); remark: listed apart in the source

binding [1]: binds
binding [2]: binds
Molecule: TUBB4B (from UniProt P68371 1-445)

binding [1]: binds
binding [2]: no binding
Molecule: HSPA6 (from UniProt P17066 1-643)

binding [1]: binds
binding [2]: binds
Molecule: TUBA1B (from UniProt P68363 1-451)

binding [1]: binds
binding [2]: binds
Molecule: HSPA5 (from UniProt P11021 19-654)

binding [1]: binds
binding [2]: binds
Molecule: EEF1A1 (from UniProt P68104 1-462)

binding [1]: binds
binding [2]: binds
Molecule: HSPA1A (from UniProt P0DMV8 1-641)

binding [1]: binds
binding [2]: binds
Molecule: HSPA8 (from UniProt P11142 1-646)

binding [1]: binds
binding [2]: binds
Molecule: TUBB (from UniProt P07437 1-444)

binding [1]: binds
binding [2]: binds
Molecule: ATP5A1 (from UniProt P25705 44-553)

binding [1]: binds
binding [2]: no binding
Molecule: HSP90AA1 (from UniProt P07900 1-732)

binding [1]: binds
binding [2]: binds
Molecule: RUVBL1 (from UniProt Q9Y265 1-456)

binding [1]: binds
binding [2]: binds
Molecule: HSPA9 (from UniProt P38646 47-679)

binding [3]: binds
binding [4]: no binding
B1: SUGT1 (protein, UniProt Q9Y2Z0 1-365)
chain: MAAAAAGTATSQRFFQSFSDALIDEDPQAALEELTKALEQKPDDAQYYCQRAYCHILLGNYCVAVADAKKSLELNPNNSTAMLRKGICEYHEKNYAAALETFTEGQKLDIETGFHRVGQAGLQLLTSSDPPALDSQSAGITGADANFSVWIKRCQEAQNGSESEVWTHQSKIKYDWYQTESQVVITLMIKNVQKNDVNVEFSEKELSALVKLPSGEDYNLKLELLHPIIPEQSTFKVLSTKIEIKLKKPEAVRWEKLEGQGDVPTPKQFVADVKNLYPSSSPYTRNWDKLVGEIKEEEKNEKLEGDAALNRLFQQIYSDGSDEVKRAMNKSFMESGGTVLSTNWSDVGKRKVEINPPDDMEWKKY
